For `O=C1Nc2ccc(Cl)cc2C(c2ccccc2)=NC1O` (centres unmarked) [oxazepam], the “influence of metyrapone and oxazepam on plasma concentrations of each other” value (ip, rats, FIG. 14) was “did not influence plasma concentrations of each other” and the “effect of the presence of cocaine on the plasma concentration of the drug” value (iv cocaine 0.25 mg/kg/infusion every 2 minutes for 1 hour) was “did not affect”.

From US20200016134A1, “COMPOSITIONS AND METHODS FOR TREATING SUBSTANCE ABUSE DISORDERS” (EMBERA NEUROTHERAPEUTICS, INC., priority 2016, published 2020)
